Data as given in the supplement of paper PMC8975748.
Where a name gives a salt, the structure may show the parent alone. ± gives the standard deviation of the averaged measurements. The list shows a part of the results. Values are raw readings; no control value is given beside them.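 The yeast community starts from one strain carrying four plasmids, each with an amino-acid or uracil synthesis gene and a fluorescent protein. Random plasmid loss creates mixed prototroph and auxotroph subpopulations. Cells were fixed and counted by automated confocal fluorescence imaging, and DMSO-treated wells served as the vehicle reference.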

Test system: Saccharomyces cerevisiae BY4741 SeMeCo community
Test: imaged cell count per well (cells); higher = more cells
Details: 10 µM; 24 h; SM minimal medium
Protocol: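 Same SeMeCo high-content imaging drug screen: Selleck FDA-approved drugs at 10 µM, 24 h in SM medium, 384-well plates, 3 replicates.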

SMILES | imaged cell count per well
CC(C)N(CCC(C(N)=O)(c1ccccc1)c1ccccn1)C(C)C (centres undefined) [Disopyramide] | 25500 ± 770
Nc1ccncc1 [4-Aminopyridine] | 25600 ± 3700
O=c1cccc2n1C[C@@H]1CNC[C@H]2C1 [Cytisine] | 20100 ± 5600
N[C@@H]1C[C@H]1c1ccccc1 [Tranylcypromine (2-PCPA) HCl] | 25000 ± 9600
C[N+]12CCC(CC1)C(OC(=O)C(O)(c1ccccc1)c1ccccc1)C2 (centres undefined) [Clidinium Bromide] | 21600 ± 7900
CCCCCCCCCCCCCCCC[n+]1ccccc1 [Cetylpyridinium Chloride] | 1450 ± 930
NCC(O)c1ccc(O)cc1 (racemic) [(+,-)-Octopamine HCl] | 27500 ± 5700
C[CH2][Hg][S]c1ccccc1C(=O)[O-].[Na+] [Thimerosal] | 548 ± 110
Cc1cc(O)ccc1Cl [Chlorocresol] | 23200 ± 4700
C=C[C@H]1CN2CC[C@H]1C[C@H]2[C@H](O)c1ccnc2ccccc12 [Cinchonidine] | 20800 ± 4200
C=CC[C@]1(O)CC[C@H]2[C@@H]3CCC4=CC(=O)CCC4=C3C=C[C@@]21C [Altrenogest] | 25400 ± 3800
CN[C@@H]1[C@@H](O)[C@@H](O[C@@H]2[C@@H](O)[C@H](O[C@H]3O[C@H]([C@@H](C)O)[C@@H](O)[C@H](O)[C@H]3N)[C@@H](N)C[C@H]2N)OC[C@]1(C)O [Geneticin (G418 Sulfate)] | 26100 ± 1300
CN1c2ccccc2C(NCCCCCCC(=O)O)c2ccc(Cl)cc2S1(=O)=O (centres undefined) [Tianeptine sodium] | 19900 ± 1600
O=C(O[C@H]1C[N+]2(CCCOc3ccccc3)CCC1CC2)C(O)(c1cccs1)c1cccs1 [Aclidinium Bromide] | 19700 ± 5200
COc1ccc2c3c([nH]c2c1)C(C)=NCC3 [Harmaline] | 30100 ± 8400
C=C(C)[C@H]1Cc2c(ccc3c2O[C@@H]2COc4cc(OC)c(OC)cc4[C@@H]2C3=O)O1 [Rotenone (Barbasco)] | 19300 ± 4800
CCN(C)C(=O)Oc1cccc([C@H](C)N(C)C)c1 [Rivastigmine Tartrate] | 23300 ± 5500

A different layout for some results above:

| SMILES | imaged cell count per well |
| --- | --- |
| C[N+]12CCC(CC1)C(OC(=O)C(O)(c1ccccc1)c1ccccc1)C2 (centres undefined) [Clidinium Bromide] | 21600 ± 7900 |
| CCCCCCCCCCCCCCCC[n+]1ccccc1 [Cetylpyridinium Chloride] | 1450 ± 930 |
| C[CH2][Hg][S]c1ccccc1C(=O)[O-].[Na+] [Thimerosal] | 548 ± 110 |
| CN[C@@H]1[C@@H](O)[C@@H](O[C@@H]2[C@@H](O)[C@H](O[C@H]3O[C@H]([C@@H](C)O)[C@@H](O)[C@H](O)[C@H]3N)[C@@H](N)C[C@H]2N)OC[C@]1(C)O [Geneticin (G418 Sulfate)] | 26100 ± 1300 |
| CN1c2ccccc2C(NCCCCCCC(=O)O)c2ccc(Cl)cc2S1(=O)=O (centres undefined) [Tianeptine sodium] | 19900 ± 1600 |
| C=C(C)[C@H]1Cc2c(ccc3c2O[C@@H]2COc4cc(OC)c(OC)cc4[C@@H]2C3=O)O1 [Rotenone (Barbasco)] | 19300 ± 4800 |
| CCN(C)C(=O)Oc1cccc([C@H](C)N(C)C)c1 [Rivastigmine Tartrate] | 23300 ± 5500 |

(list continues)

SMILES | imaged cell count per well
COc1cc2c(cc1OC)C1CC(=O)C(CC(C)C)CN1CC2 (centres undefined) [Tetrabenazine (Xenazine)] | 14300 ± 4200
CCN1C[C@]2(OC(=O)c3ccccc3NC(C)=O)CC[C@H](OC)[C@@]34[C@@H]2C[C@@H]([C@@H]13)[C@@]1(O)C[C@H](OC)[C@H]2C[C@@H]4[C@]1(O)[C@H]2OC [Lappaconitine] | 27000 ± 3200
CN(C)C(=O)Oc1ccc[n+](C)c1 [Pyridostigmine Bromide] | 20900 ± 4700
CN1C(=O)COc2c(C(=O)NC3CN4CCC3CC4)cc(Cl)cc21 (centres undefined) [Azasetron HCl] | 22600 ± 5700
CC[N+](C)(CC)CCOC(=O)C(O)(c1ccccc1)c1ccccc1 [Methylbenactyzine Bromide] | 24900 ± 8700
CC[C@@]1(O)C(=O)OCc2c1cc1n(c2=O)Cc2cc3ccccc3nc2-1 [Camptothecin] | 29600 ± 2500
CC[C@H]1[C@@H]2C[C@H]3[C@@H]4N(C)c5ccccc5[C@]45C[C@@H]([C@@H]2[C@H]5O)N3[C@@H]1O [Ajmaline] | 30400 ± 1400
CN[C@@H]1[C@@H](O)[C@@H](O[C@@H]2[C@@H](O)[C@H](O[C@H]3O[C@H](CN)CC[C@H]3N)[C@@H](N)C[C@H]2N)OC[C@]1(C)O.CN[C@@H]1[C@@H](O)[C@@H](O[C@@H]2[C@@H](O)[C@H](O[C@H]3O[C@H]([C@@H](C)N)CC[C@H]3N)[C@@H](N)C[C@H]2N)OC[C@]1(C)O.CN[C@@H]1[C@@H](O)[C@@H](O[C@@H]2[C@@H](O)[C@H](O[C@H]3O[C@H]([C@@H](C)NC)CC[C@H]3N)[C@@H](N)C[C@H]2N)OC[C@]1(C)O [Gentamicin Sulfate] | 21400 ± 6500
C[N+](C)(C)CCCCCCCCCC[N+](C)(C)C [Decamethonium Bromide] | 25000 ± 3300
CNC1CC(N)C(O)C(OC2OC(CO)C(O)C3OC4(OC(C(N)CO)C(O)C(O)C4O)OC23)C1O (centres undefined) [Hygromycin B] | 27300 ± 5000
CC(=O)c1c(O)cc(C)oc1=O [Sodium dehydroacetate] | 19000 ± 820
C=CN1CCCC1=O.II [Povidone iodine] | 24100 ± 5800
CC1(C)S[C@@H]2[C@H](N)C(=O)N2[C@H]1C(=O)O [6-Aminopenicillanic acid] | 29200 ± 5200
C[C@H]1O[C@H](O[C@H]2[C@H](O)[C@@H](O)[C@@H](O)[C@H](O)[C@@H]2O)[C@@H](N)C[C@@H]1NC(=N)C(=O)O [Kasugamycin hydrochloride] | 28200 ± 2100
Cc1cc(C(C#N)c2ccc(Cl)cc2)c(Cl)cc1NC(=O)c1cc(I)cc(I)c1O (centres undefined) [Closantel] | 24500 ± 9300
CN1[C@@H]2C[C@@H](OC(=O)[C@H](CO)c3ccccc3)C[C@H]1[C@@H]1O[C@@H]12 [Scopolamine HBr trihydrate] | 29700 ± 3000
NCCc1c[nH]c2ccc(O)cc12 [Serotonin HCl] | 26300 ± 10000
